The target in this test is Lamin A-GFP (UniProt P02545). The experiment in a line: FRET or BRET; FRET-FLIM; HEK293T cells transiently transfected with lamin A-GFP (donor) and STING-RFP (acceptor), fixed after 24 h in 3.7% formaldehyde; lamin A-GFP alone as negative and a tandem RFP-GFP construct as positive control.

Chains of the proteins cited; added tags and fusions are not shown. Residues count along the entry.
UniProt P02545, residues 1-646: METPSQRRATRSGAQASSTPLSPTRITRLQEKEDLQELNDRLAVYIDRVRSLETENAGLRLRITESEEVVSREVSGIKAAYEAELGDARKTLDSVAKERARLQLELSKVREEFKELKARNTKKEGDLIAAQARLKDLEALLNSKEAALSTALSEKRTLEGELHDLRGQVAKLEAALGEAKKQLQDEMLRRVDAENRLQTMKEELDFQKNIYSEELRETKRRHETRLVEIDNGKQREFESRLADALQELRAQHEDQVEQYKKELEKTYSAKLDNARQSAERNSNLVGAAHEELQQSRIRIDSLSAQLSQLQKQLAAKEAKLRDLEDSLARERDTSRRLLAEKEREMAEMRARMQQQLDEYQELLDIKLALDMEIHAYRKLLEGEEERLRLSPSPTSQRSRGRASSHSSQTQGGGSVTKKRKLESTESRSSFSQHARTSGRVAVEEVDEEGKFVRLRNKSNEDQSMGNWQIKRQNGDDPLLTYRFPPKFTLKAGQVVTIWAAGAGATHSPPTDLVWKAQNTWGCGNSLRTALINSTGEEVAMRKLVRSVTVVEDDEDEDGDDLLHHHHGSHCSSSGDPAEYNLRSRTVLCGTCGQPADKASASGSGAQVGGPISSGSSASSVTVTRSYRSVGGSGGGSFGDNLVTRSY
UniProt Q86WV6: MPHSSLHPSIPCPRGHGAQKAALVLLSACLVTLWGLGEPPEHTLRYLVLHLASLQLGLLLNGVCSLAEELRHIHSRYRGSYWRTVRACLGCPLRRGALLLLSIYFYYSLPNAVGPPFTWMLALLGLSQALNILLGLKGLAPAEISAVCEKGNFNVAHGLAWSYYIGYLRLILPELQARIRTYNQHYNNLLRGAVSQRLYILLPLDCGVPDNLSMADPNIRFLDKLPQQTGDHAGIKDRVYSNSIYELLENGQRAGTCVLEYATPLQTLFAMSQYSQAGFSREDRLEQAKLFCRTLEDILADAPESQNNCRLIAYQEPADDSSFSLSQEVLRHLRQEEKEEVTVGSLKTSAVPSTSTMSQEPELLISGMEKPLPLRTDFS

These are yes or no findings as the source states them, for the method shown. In cells and extracts the contact can be indirect. Some results given as binding are weak or reduced against the parent protein; the word gives no strength.

As to STING-RFP (from UniProt Q86WV6 1-379), the binding entry is on record as “binds”.

The values are drawn from paper PMC8436130.
